Cell count data for 93 molecules are collected here from PubChem BioAssay AID493036 (Sanford-Burnham Center for Chemical Genomics, 2011).

This is one part of the list.

This assay is described as follows: NTR1-driven beta-arrestin-GFP spot formation – imaging, U2OS cells, high content, primary screen (AID 493036) (AID 493036). The following applies: agonist mode, measured here: cell count, cytotoxicity flag, at 20 µM.
`CP(=O)(Nc1ccc(SC(F)(F)F)cc1)Oc1ccccc1` (stereo not drawn) showed a cell count of 53 cells.
The result for `Nc1cccc([As](=O)(O)c2ccccc2)c1` reads 58 cells.
`CCCOc1ccc(NP(C)(=O)Oc2ccc(Cl)cc2)cc1` (stereo not drawn): the cell count was 29 cells.
In the case of `O=P1(Nc2ccc(Br)cn2)COc2ccccc2OC1`, the cell count is 79 cells.
The result for `NS(=O)(=O)c1cccc(NC(=O)COC(=O)C(O)(c2ccccc2)c2ccccc2)c1` reads 71 cells; that for `Cc1ccc(OCC(=O)OC2CN3CCC2CC3)cc1` (stereo not drawn), 62 cells.
Under `O=[As](O)(c1cccs1)c1cccs1` stands 94 cells; under `O=P1(Nc2ncccn2)COc2ccccc2OC1`, 73 cells; under `COc1ccccc1OP(C)(=O)Nc1c(C)cccc1C` (stereo not drawn), 78 cells.
For the molecule `CN1CCCCC1COC(=O)C1(O)c2ccccc2CCc2ccccc21` (stereo not drawn), the cell count turned out to be 61 cells.
Under `Nc1ccccc1[As](=O)(O)c1ccccc1` stands 52 cells; under `O=C(O)COc1ccc([As](=O)(O)O)cc1[N+](=O)[O-]`, 51 cells.
Under `O=P(Nc1nccs1)(c1ccccc1)c1nc2ccccc2s1` (stereo not drawn) stands 39 cells; under `O=P(Nc1nccs1)(Oc1ccccc1)Oc1ccccc1`, 94 cells.
With `CCOP1(=S)c2c(C)nn(CCC#N)c2N=C(c2ccccc2F)N1C` (stereo not drawn), the cell count was found to be 49 cells.
For `O=C(O)c1cccc(Nc2c([N+](=O)[O-])cc([N+](=O)[O-])cc2[N+](=O)[O-])c1`, the cell count came out at 51 cells.
The result for `CS(=O)(=O)c1cc([N+](=O)[O-])c2no[n+]([O-])c2c1` reads 46 cells; that for `CN(C(=O)Cc1ccccc1)[C@@H]1CC[C@]2(CCCO2)C[C@H]1N1CCCC1`, 59 cells; that for `CCOP1(=S)c2c(C)nn(CCC#N)c2N=C(c2ccc(F)cc2)N1C` (stereo not drawn), 39 cells.
Under `N#CCCN(C(=O)COC(=O)C(O)(c1ccccc1)c1ccccc1)c1ccc(F)cc1` stands 54 cells.
`CN(C(=O)Cc1ccc(Cl)c(Cl)c1)[C@H]1CC[C@@]2(CCCO2)C[C@@H]1N1CCCC1` came in with a cell count of 57 cells.
`CC1=NCCc2c1[nH]c1ccccc21.O=[N+]([O-])c1cc([N+](=O)[O-])c(O)c([N+](=O)[O-])c1` yielded a cell count of 41 cells.
In turn, `CN(C)C(=O)c1cc([N+](=O)[O-])cc2c1-c1c(cc([N+](=O)[O-])cc1[N+](=O)[O-])C2=O` registered a cell count of 36 cells.
Under `O=[N+]([O-])c1ccc2c(c1)nnn2O` stands 57 cells.
As for `NC(=O)Nc1ccc([As](=O)(O)O)cc1`, the cell count worked out at 101 cells.
`Cc1cc(C)cc(OP(C)(=O)Nc2ccc(C)cc2C)c1` (stereo not drawn) showed a cell count of 45 cells.
Under `O=[As](O)(c1cccc(O)c1)c1cccc(O)c1` stands 72 cells.
Regarding `Cc1cccc(OCC(=O)OC2CN3CCC2CC3)c1` (stereo not drawn), the cell count turned out to be 72 cells.
The result for `CCOC(=O)c1ccc(NP(C)(=O)Oc2cc(C)cc(C)c2)cc1` (stereo not drawn) reads 69 cells; that for `O=C(OC1CN2CCC1CC2)c1ccc(Cl)cc1` (stereo not drawn), 58 cells; that for `COc1ccccc1OP(C)(=O)Nc1cccc(Br)c1` (stereo not drawn), 73 cells.
Take `CS(=O)(=O)c1ccc(Cl)c(NC(=O)COC(=O)C(O)(c2ccccc2)c2ccccc2)c1`: the cell count was determined as 48 cells.
The result for `COc1cc(C(=O)NCC2(N3CCOCC3)CCCCC2)cc(Cl)c1OC(C)C` reads 45 cells; that for `O=[As](O)(O)c1cccnc1`, 63 cells; that for `CCOP(=O)(Nc1cccc2ccccc12)OCC`, 91 cells.
Under `Cc1ccc(NCCc2c([N+](=O)[O-])cc([N+](=O)[O-])cc2[N+](=O)[O-])cc1` stands 72 cells; under `CP(=O)(Nc1cccc(Br)c1)Oc1ccccc1` (stereo not drawn), 24 cells.
In the case of `Cc1cc(C)cc(OP(C)(=O)Nc2ccccn2)c1` (stereo not drawn), the cell count was 60 cells.
The result for `CCCOP(=S)(Nc1nc(N)cc(=O)[nH]1)OCCC` reads 74 cells; that for `Cc1ccc(C)c(NP(C)(=O)Oc2ccccc2)c1` (stereo not drawn), 61 cells.
Turning to `COc1cc(I)ccc1[As](=O)(O)O`, the cell count was 66 cells.
As to `COc1ccc2nc(NP(=O)(c3ccccc3)c3ccccc3)sc2c1`, the cell count came to 56 cells.
On to `Cc1c2c(nc3ccccc13)SC(C(Cl)Cl)C2` (stereo not drawn), for which the cell count was found to be 63 cells.
Under `Cc1cc(=O)[nH]c(N[N+](=O)[O-])n1` stands 102 cells; under `CCN(CC)CCCOC(=O)C(O)(c1ccccc1)c1ccccc1`, 41 cells.
In turn, `O=C(OC1CN2CCC1CC2)C12CC3CC(CC(C3)C1)C2` (stereo not drawn) returned a cell count of 91 cells.
The result for `COc1ccc(N/C(=N/P(=O)(N2CCOCC2)N2CCOCC2)N2CCOCC2)cc1` reads 69 cells; that for `CC(Cc1ccc(O)cc1)NCC(O)c1cc(O)cc(O)c1` (stereo not drawn), 68 cells.
Under `Cc1cccc(C)c1OP(C)(N)=O` (stereo not drawn) stands 58 cells; under `CC(C)(C)c1ccc(OP(C)(=O)Nc2ccc(SC(F)(F)F)cc2)cc1` (stereo not drawn), 65 cells.
`Cc1ccc(OP(=O)(Nc2ccc([N+](=O)[O-])cn2)Oc2ccc(C)cc2)cc1`: the cell count turned out to be 93 cells.
As to `Cc1ccc2nc3c(c(C)c2c1)CC(C(Cl)Cl)S3` (stereo not drawn), the cell count amounted to 91 cells.
Consider `O=[N+]([O-])c1cc([N+](=O)[O-])c(Nc2cccnc2)c([N+](=O)[O-])c1`, for which the cell count is 74 cells.
The molecule `COc1cc(C(=O)NCC2(N3CCOCC3)CCCCC2)ccc1OCC(C)C` gave a cell count of 78 cells.
The result for `C[As](=O)(O)c1cccc(C(=O)O)c1` reads 81 cells; that for `O=[As](O)(c1ccc(O)cc1)c1ccccc1O`, 50 cells; that for `O=[N+]([O-])c1cc([N+](=O)[O-])c(-c2ccn[nH]2)s1`, 80 cells.
For the molecule `COc1ccc(OP(C)(=O)Nc2cccc(F)c2)cc1` (stereo not drawn), the cell count came out at 74 cells.
The result for `CCN(CC)C(=S)SC(NC=O)C(Cl)(Cl)Cl` (stereo not drawn) reads 61 cells; that for `O=C(OC1CN2CCC1CC2)c1cccc2[nH]cnc12` (stereo not drawn), 54 cells.
For the molecule `COc1ccccc1OP(C)(=O)Nc1cc(Cl)ccc1C` (stereo not drawn), the cell count was found to be 66 cells.
Molecule `CC(C)NC(=O)NP(=O)(Oc1ccccc1)Oc1ccccc1` showed a cell count of 39 cells.
Under `Cc1cc(C)cc(OP(C)(N)=O)c1` (stereo not drawn) stands 72 cells; under `ClCCSc1nnc(-c2cccnc2)o1`, 83 cells; under `CCOC(=O)c1ccc(NP(C)(=O)Oc2ccccc2)cc1` (stereo not drawn), 81 cells.
Consider `Cc1ccc(NP(C)(=O)Oc2ccccc2)c(C)c1` (stereo not drawn), for which the cell count is 93 cells.
Consider `CC(C)c1ccc(OP(=O)(Nc2ccccn2)Oc2ccccc2F)cc1` (stereo not drawn), for which the cell count was determined as 50 cells.
Under `COc1ccccc1OP(C)(=O)Nc1ccc(C)cc1` (stereo not drawn) stands 33 cells; under `Cc1cc(SC(NC(=O)c2ccccc2)C(Cl)(Cl)Cl)nc(C(C)C)n1` (stereo not drawn), 55 cells.
The result for `CCCCOc1ccc(C(=O)NCC2(N3CCCCC3)CCCCC2)cc1OC` reads 42 cells.
`CCOC(=O)Nc1ccc([As](=O)(O)O)c(O)c1`: the cell count was 70 cells.
Under `COc1ccccc1OP(C)(=O)Nc1ccccc1` (stereo not drawn) stands 36 cells.
Regarding `O=P(Nc1ccccn1)(c1cccc2ccccc12)c1cccc2ccccc12`, the cell count was 61 cells.
`Cc1cc(SC(NC=O)C(Cl)(Cl)Cl)ncn1` (stereo not drawn): the cell count is 88 cells.
The result for `CP(=O)(Nc1ccccc1Br)Oc1ccccc1` (stereo not drawn) reads 57 cells.
`CP(=S)(Nn1cnnc1)Oc1ccccc1` (stereo not drawn) gave a cell count of 51 cells.
Under `CCOC(=O)Nc1cccc([As](=O)(O)O)c1` stands 80 cells.
The result for `O=C(Nc1ccncc1[N+](=O)[O-])c1ccc([N+](=O)[O-])cc1[N+](=O)[O-]` reads 72 cells; that for `Cc1cc(C)cc(OP(C)(=O)Nc2ccc(SC(F)(F)F)cc2)c1` (stereo not drawn), 65 cells; that for `CCc1ccc(OP(C)(=O)N2CCN(c3ccc([N+](=O)[O-])cc3)CC2)cc1` (stereo not drawn), 54 cells.
Under `O=C(COc1ccccc1)OC1CN2CCC1CC2` (stereo not drawn) stands 87 cells; under `CP(=O)(NC(=O)Nc1ccccc1)Oc1ccccc1` (stereo not drawn), 42 cells.
Consider `CP(=O)(Oc1ccccc1)OC(c1ccccc1)C(F)(F)F` (stereo not drawn), for which the cell count amounted to 66 cells.
Under `Cc1cccc(C)c1OP(C)(=O)Nc1ccc(SC(F)(F)F)cc1` (stereo not drawn) stands 30 cells; under `CP(=O)(Nc1ccc(SC(F)(F)F)cc1)Oc1ccc(Cl)cc1` (stereo not drawn), 50 cells; under `COP1(=S)c2c(C)nn(CCC#N)c2N=C(c2ccc(F)cc2)N1C` (stereo not drawn), 55 cells.
Under `CCC(C)N(CC(C)C)C(=S)SC(NC(C)=O)C(Cl)(Cl)Cl` (stereo not drawn) stands 87 cells; under `CP(=O)(Nc1ccccn1)Oc1ccc(Cl)cc1` (stereo not drawn), 49 cells.
`O=C(OC1CN2CCC1CC2)c1cccc([N+](=O)[O-])c1` (stereo not drawn) returned a cell count of 45 cells.
The molecule `CCOP(C)(=S)SCC(=O)NC(C)C(=O)O` (stereo not drawn) yielded a cell count of 44 cells.
Turning to `CCOC(=O)c1ccc(NC(=O)C(C)(CCl)SC)cc1` (stereo not drawn), the cell count amounted to 64 cells.
Under `CCOC(=O)c1ccc(NP(C)(=O)Oc2ccc(OC)cc2)cc1` (stereo not drawn) stands 63 cells.
Under `O=[N+]([O-])c1cc([N+](=O)[O-])c(O)c([N+](=O)[O-])c1.c1ccc(Oc2ccncc2)cc1` stands 59 cells.
